# Source: PubChem BioAssay AID540276 (National Center for Advancing Translational Sciences (NCATS), 2011)
# The campaign covered roughly 300,000 compounds. About 5,400 (1.8%) were called active. The inconclusive results got no clear call from the source; some entries with a clear call stand among them for comparison. The call rests on the fitted dose curve; tested in HEK293 cells. Potencies of inconclusive entries are doubtful fits and often do not repeat.
# Assay: qHTS for inhibitors of binding or entry into cells for Marburg Virus
# Conditions: Marburg virus pseudotyped entry inhibition, cell reporter; activity change, negative = inhibition: at 37.8 µM (top of the series) unless noted
# On the % scale 0 is the no-effect control and ±100 the full control effect; potency means the concentration at half of the fitted maximal effect.
SMILES,"activity change, negative = inhibition",Potency
COC(=O)C(NC(=O)c1ccco1)(Nc1nc(C)cs1)C(F)(F)F (centres undefined),inactive: 3.36%,
CC(=O)c1ccc(NC(=O)C2(c3ccccc3)CC2(Cl)Cl)cc1 (centres undefined),,"inconclusive: 1.58 µM [activator, full curve]"
COc1ccc(C2CC3(CC(C)(C)NC(SC)=N3)Oc3cc(O)cc(C)c32)cc1 (centres undefined),,active: 10 µM
CC(Oc1ccc(-n2cnnn2)cc1)C(=O)O (centres undefined),inactive: -15.7% [at 46.1 µM],
CCN1CCN(S(=O)(=O)c2ccc(Cl)c(C(=O)Nc3cc(Cl)ccc3N3CCOCC3)c2)CC1,,"inconclusive: 35.5 µM [inhibitor, partial curve, poor fit]"
Cc1ccc(N2CC(C(=O)Nc3ccc(S(=O)(=O)Nc4nccc(C)n4)cc3)CC2=O)cc1 (centres undefined),,"inconclusive: 3.16 µM [inhibitor, partial curve, poor fit]"
Cc1cc(C)cc(N2C(=O)CC(n3nc(C)cc3C)C2=O)c1 (centres undefined),,"inconclusive: 14.1 µM [activator, partial curve, poor fit]"
O=C(NCc1cccc(C(F)(F)F)c1)c1cc(Cl)cc(Cl)c1,inactive: -22.7%,
CC(C)Oc1ccc(CN2CCCC(CO)(Cc3ccc(F)cc3)C2)cc1 (centres undefined),,"inconclusive: 11.2 µM [inhibitor, partial curve, poor fit]"
O=C(Oc1ccc2c(c1)OCO2)c1ccc(F)cc1Cl,,"inconclusive: 2.31 µM [activator, full curve, poor fit]"
Cc1cc(OCC(=O)N(Cc2ccc(N(C)C)cc2)C2CCS(=O)(=O)C2)cc(C)c1Cl (centres undefined),,"inconclusive: 17.8 µM [inhibitor, single point]"
CN(Cc1ccccc1)C(=O)COC(=O)C1CCN(S(=O)(=O)c2ccc(Cl)c(C(F)(F)F)c2)CC1,inactive: -17.9% [at 46.1 µM],
O=C(c1ccc(S(=O)(=O)Cc2ccccc2F)c([N+](=O)[O-])c1)N1CCCC1,,"inconclusive: 6.31 µM [inhibitor, single point]"
Cc1ccc(C(=O)CSc2cc(C)nc(SCC(=O)c3ccccc3)n2)cc1,,"inconclusive: 12.6 µM [inhibitor, single point]"
Cc1cc(C)c(O)c(C2(O)C(=O)c3ccccc3C2=O)c1,inactive: -15% [at 46.1 µM],
COc1ccc(NC(=O)Cn2c(=O)n(-c3ccc(OC)cc3)c(=O)c3ccc(C(=O)NCc4ccc(C)cc4)cc32)cc1,inactive: -3.42% [at 46.1 µM],
O=C(CSc1nc2ccccc2o1)N1c2ccccc2Sc2ccc(C(F)(F)F)cc21,inactive: -19.7%,
CCc1nc(N2CCCC2)c(C#N)c2c1CCCC2,,inactive
O=C(Nc1ccc2c(c1)OCCO2)C1CCC1,,"inconclusive: 29.1 µM [activator, single point]"
COC(=O)CCCN1C(=O)c2cccc3cccc(c23)C1=O,,"inconclusive: 1.26 µM [inhibitor, single point]"
Cc1ccc(O)c(-c2cc(C(=O)NCc3ccc4c(c3)OCO4)[nH]n2)c1,,"inconclusive: 0.0891 µM [inhibitor, full curve, poor fit]"
CCOC(=O)c1c(C)[nH]c(C(=O)COC(=O)C2(C)CC2(Cl)Cl)c1C (centres undefined),,"inconclusive: 20.6 µM [inhibitor, single point]"
Cc1c(C(=O)C(=O)N2CCC3(CC2)OCCO3)c2ccccc2n1C,,"inconclusive: 3.55 µM [activator, single point]"

SMILES,"activity change, negative = inhibition",Potency
COc1ccc2c(c1)C1=NN(/C(C)=C/C(C)=O)C(c3cccc(F)c3)C1CC2 (centres undefined),inactive: 16.4%,
Cc1ccc(Nc2ncc(C(=O)N3CCN(c4cccc(Cl)c4)CC3)c3ccccc23)cc1Cl,inactive: -20% [at 46.1 µM],
CCCC(=O)c1ccc2c(c1)OCCO2,inactive: 11.8%,
COC(=O)c1c(-c2ccncc2)csc1NC(=O)c1ccoc1C,,"inconclusive: 2.59 µM [activator, partial curve, poor fit]"
N#Cc1c(/N=C/c2ccco2)sc2c1CCCCC2,inactive: 12.2%,
COc1cc(C(=O)Nc2nnc(-c3sccc3C)s2)cc(OC)c1OC,,"inconclusive: 35.5 µM [inhibitor, single point]"
c1ccc(N2CCOCCOCCOCCOCCOCC2)cc1,inactive: 3.05%,
Cc1cnn(-c2cc(N/N=C/c3ccccc3F)ncn2)c1,inactive: 3.77%,
O=C(CN1CCN(C2CCCCC2)CC1)Nc1ccccc1N1CCCCC1,,"inconclusive: 8.2 µM [inhibitor, partial curve, poor fit]"
CCN(CC)S(=O)(=O)c1cccc(C(=O)OCC(=O)N2CC(=O)Nc3ccccc32)c1,,"inconclusive: 0.259 µM [inhibitor, full curve, poor fit]"
COc1ccc2c(-c3ccccc3)cc(SC(C)C(N)=O)nc2c1 (centres undefined),,"inconclusive: 22.4 µM [inhibitor, single point]"
Cc1ccc(C(=O)Nc2ccc3ccccc3n2)cc1,,"inconclusive: 1.58 µM [activator, partial curve, poor fit]"
O=C(CNC(=O)c1ccc(Cl)cc1)OCC(=O)N1CCCC1,inactive: -8.14% [at 46.1 µM],
CCCOC(=O)Nc1ccc([As](=O)(O)O)cc1NC(=O)OCCC,inactive: 9.02% [at 46.1 µM],
CCc1nnc(NS(=O)(=O)c2ccc(NCc3ccccc3O)cc2)s1,inactive: 15.1%,
O=C(/C=C/c1ccc(F)cc1)N1CCN(S(=O)(=O)/C=C/c2ccccc2)CC1,inactive: -14.1% [at 46.1 µM],
CN(C(=O)COC(=O)c1ccccc1OCc1ccc(Cl)cc1)c1c(N)n(Cc2ccccc2)c(=O)[nH]c1=O,,"inconclusive: 5.01 µM [inhibitor, partial curve]"
CCSc1nnc(Cc2cc(=O)[nH]c(=O)[nH]2)n1-c1ccc(F)cc1,,"inconclusive: 6.51 µM [activator, single point]"
Cc1ccc(NC(=S)/N=C(\N)Nc2nc(C)c3ccccc3n2)cc1C,,"inconclusive: 12.6 µM [inhibitor, single point]"
COc1ccc(O)c(C(=O)c2cnc3c(c2)c(=O)[nH]c(=O)n3C)c1,inactive: -0.436%,
Cc1cccc(C(C)C)c1NC(=O)C(C)OC(=O)Cc1n[nH]c(=O)c2ccccc12 (centres undefined),,"inconclusive: 8.91 µM [activator, partial curve, poor fit]"
CC(C)n1cc(C(=O)N2CCCC(N3CCN(c4ccc(F)cc4)CC3)C2)cn1 (centres undefined),inactive: 26.5% [at 46.1 µM],
CCN1CCN(C(=O)CCc2nnc(CCc3ccccc3OC)o2)[C@@H](C)C1=O,,"inconclusive: 3.55 µM [activator, partial curve, poor fit]"

# In the list so far, 2 have a cyano group.
SMILES,"activity change, negative = inhibition",Potency
CCc1nc(N2CCCC2)c(C#N)c2c1CCCC2,,inactive
N#Cc1c(/N=C/c2ccco2)sc2c1CCCCC2,inactive: 12.2%,

# Complete entries from above.
# `Cc1cc(OCC(=O)N(Cc2ccc(N(C)C)cc2)C2CCS(=O)(=O)C2)cc(C)c1Cl` (centres undefined) is entered as Potency: inconclusive: 17.8 µM [inhibitor, single point]
# `CCSc1nnc(Cc2cc(=O)[nH]c(=O)[nH]2)n1-c1ccc(F)cc1` is entered as Potency: inconclusive: 6.51 µM [activator, single point]

# The list goes on.

SMILES,"activity change, negative = inhibition",Potency
CC1=C(C)CC(C(=O)NCc2ccccn2)C(C(=O)O)C1 (centres undefined),inactive: 19.5% [at 46.1 µM],
COc1ccc(N2CCN(c3nc(-c4cccs4)nc4ccccc34)CC2)cc1,,"inconclusive: 17.8 µM [inhibitor, single point]"
CC(C)(C)c1cc(C(=O)N/N=C/c2ccc(O)cc2)n(-c2ccccc2)n1,,"inconclusive: 3.98 µM [inhibitor, partial curve, poor fit]"
CCOC(=O)c1c(N2C(=O)C=CC2=O)sc(C)c1C,,"inconclusive: 29.1 µM [inhibitor, single point]"
Cc1ccc2c(c1)[C@@H]1CN(C)CC[C@@H]1N2S(=O)(=O)c1ccc(F)cc1,inactive: -19.3%,
COCC(C)n1c(C)cc(C(=O)CSc2nnc(Nc3ccccc3F)s2)c1C (centres undefined),,"inconclusive: 35.5 µM [inhibitor, single point]"
CSCCC(NC(=O)c1ccco1)C(=O)NC1CCCCCC1 (centres undefined),,"inconclusive: 35.5 µM [activator, single point]"
Cc1oc(-c2ccc(Cl)cc2)cc1C(=O)NC1CCN(Cc2ccccc2)CC1,,"inconclusive: 8.91 µM [inhibitor, partial curve, poor fit]"
CCCCOc1ccc(S(=O)(=O)NCc2csc(-c3ccc(OC)cc3)n2)cc1,inactive: -4.65% [at 46.1 µM],
C=CCn1c(C)cc(C(=O)CSc2nnc(NC(C)C)s2)c1C,,"inconclusive: 12.6 µM [inhibitor, single point]"
CCOc1ccc(/C=N/n2c(C)nnc2C)cc1OC,,"inconclusive: 14.1 µM [activator, single point]"
O=C(OCc1cn([C@H]2C[C@H](c3ccc(Cl)cc3)N(CC3CCCCC3)C[C@H]2O)nn1)c1ccccc1,,"inconclusive: 22.3 µM [inhibitor, partial curve]"
CCCC(=O)N1CCc2cc(OC)c(OC)cc2C1c1cc2cc3c(cc2[nH]c1=O)OCO3 (centres undefined),,"inconclusive: 29.1 µM [inhibitor, single point]"
COc1ccccc1N(C)S(=O)(=O)c1ccc(C(=O)Nc2nc(C)cs2)cc1,,active: 16.4 µM
Cc1csc2ncnc(N3CCN(S(=O)(=O)c4cccc(C(F)(F)F)c4)CC3)c12,,"inconclusive: 22.4 µM [inhibitor, single point]"
Cc1nnc(N/N=C/c2ccc(-c3ccccc3F)o2)n1N,,"inconclusive: 0.891 µM [activator, full curve, poor fit]"
O=C(NC(=S)Nc1ccc(N2CCCC2)cc1)c1ccc(F)cc1,inactive: 0.313%,
COc1ccc(-c2nc3c(-c4ccc(Cl)cc4)cnn3cc2C)cc1F,inactive: 0.0428% [at 46.1 µM],
O=C(/C=C/c1ccccc1)NNC(=O)c1cccs1,,"inconclusive: 1.26 µM [inhibitor, partial curve, poor fit]"
CCN(CC)S(=O)(=O)c1ccc(N2CCOCC2)c(NC(=O)C2CSC3(C)CCC(=O)N23)c1 (centres undefined),,"inconclusive: 0.112 µM [inhibitor, full curve, poor fit]"
Cc1ccc(-n2c(C)cc(C(=O)COC(=O)c3ccc[nH]c3=O)c2C)cc1,,"inconclusive: 31.6 µM [inhibitor, single point]"
CCc1ccc2c(c1)CCCN2C(=O)c1ccccc1C(=O)O,,"inconclusive: 2.59 µM [inhibitor, partial curve, poor fit]"
COC(=O)c1c(C)[nH]c(/C=N/Nc2ccccc2)c1C,,"inconclusive: 15.8 µM [inhibitor, single point]"
